Test results from PubChem BioAssay AID540256 (National Center for Advancing Translational Sciences (NCATS), 2011).
“And” between values parts separate entries of the source, which are not always exact repeats. Equal values may be shown once. Screen size: about 300,000 compounds; about 3,700 (1.2%) were called active. Inconclusive means that the source gave no clear call. Such entries were picked first, then a sample of the others. Calls follow the shape of the full dose curve; tested in HEK293 cells. Potencies beside an inconclusive call are fits to weak or partial responses and may not hold up.

experiment: qHTS for Inhibitors of binding or entry into cells for Lassa Virus; settings: Lassa virus pseudotype entry inhibition, cell reporter; activity change, negative = inhibition: at 37.9 µM (top of the series) unless noted; also: nearly all actives have a fitted effect of over 50% in size
% is scaled to controls: 0 for no effect and ±100 for the full control effect; potency is read from the fitted curve at half-maximal effect.

| SMILES | Potency | activity change, negative = inhibition |
| --- | --- | --- |
| COc1ccc(/C(N)=N/OC(=O)c2ccc3c(c2)OCO3)cc1 | inconclusive: 14.1 µM [inhibitor, single point] |  |
| O=C(C1CCCCC1)N1CC(=O)N2CCc3ccccc3C2C1 (configuration not stated) | inconclusive: 2.06 µM [inhibitor, partial curve, poor fit] |  |
| O=C(N/C(=C/c1ccc(Br)cc1)C(=O)N1CCOCC1)c1ccc(Br)o1 | inactive |  |
| COc1ccc(-c2cc(C(=O)N3CCCCCC3)no2)cc1OC | inconclusive: 10 µM [activator, partial curve, poor fit] |  |
| COc1ccc2cc(C(N)=O)c(=Nc3ccc(C)cc3)oc2c1 | inconclusive: 1.26 µM [inhibitor, single point] |  |
| COc1cc(OC)cc(-c2nnc(NC(=O)CCS(=O)(=O)c3ccccc3)o2)c1 | inactive |  |
| Cc1ccc(NC(=O)Cc2ccsc2)cc1S(=O)(=O)N1CCOCC1 | inconclusive: 7.94 µM [inhibitor, partial curve, poor fit] |  |
| CCCC(=O)Nc1ccc(Nc2ccccc2)cc1 | inactive |  |
| Cn1cc(CNC(=O)c2sc3cccc(Cl)c3c2Cl)cn1 | inactive |  |
| COc1cccc(NC(=O)c2ccc(NS(=O)(=O)c3cccs3)cc2)c1 | inconclusive: 1.12 µM [activator, single point] |  |
| CCn1cc(CNC(=O)c2cc(-c3ccc(C)c(C)c3)nc3ccccc23)c(C)n1 | inconclusive: 11.2 µM [inhibitor, partial curve] |  |
| O=C(N/N=C/C=C/c1ccccc1)c1cccc(Br)c1 | inactive |  |
| COc1ccccc1C(=O)Nc1nc(-c2ccc(S(=O)(=O)N3CCOCC3)cc2)cs1 | active: 3.66 µM |  |
| Cc1ccc(S(=O)(=O)NNC(=S)Nc2ccccc2)cc1 | inactive |  |
| CCN1C(=O)[C@@H]2[C@H]3[C@H](O)[C@H](O)CC(=NNC(=O)OCc4ccccc4)[C@@H]3CC[C@H]2C1=O | inconclusive: 0.0106 µM [inhibitor, full curve, poor fit] |  |
| CCn1cc2nc(SCC(=O)Nc3ccc(C)cc3C)n(Cc3ccc(C)cc3)c(=O)c2n1 | inconclusive: 35.5 µM [inhibitor, single point] |  |
| Cn1nnnc1SCc1ccc(C(=O)Nc2nccs2)cc1 | inconclusive: 0.58 µM [activator, full curve, poor fit] |  |
| Clc1ccccc1Cn1nnc2c(N3CCCC3)ncnc21 | inconclusive: 29.1 µM [inhibitor, single point] |  |
| CC1CC(=O)N(c2ccc(NCCc3ccc(O)cc3)c([N+](=O)[O-])c2)C1=O (configuration not stated) | inconclusive: 35.5 µM [inhibitor, single point] |  |
| COc1cc([N+](=O)[O-])ccc1NC(=O)CN1CCc2cc(OC)c(OC)cc2C1 | inconclusive: 1.12 µM [inhibitor, full curve] |  |
| Cc1ccc(OCc2nnc(SCC(=O)c3ccccc3)n2-c2ccccc2)cc1 | inconclusive: 16.4 µM [inhibitor, single point] |  |
| c1ccc2nc(OCCN3CC3)ccc2c1 | inconclusive: 12.6 µM [inhibitor, partial curve] |  |
| CCCc1ccc(C2Sc3ccccc3NC3=C2C(=O)c2ccccc23)cc1 (configuration not stated) | inconclusive: 1 µM [inhibitor, full curve, poor fit] |  |

| SMILES | Potency | activity change, negative = inhibition |
| --- | --- | --- |
| COc1ccc(N=C2SC(CC(=O)Nc3ccccc3)C(=O)N2Cc2ccco2)cc1 (configuration not stated) | inconclusive: 22.4 µM [inhibitor, single point] |  |
| Cc1cc(NC(=O)c2cccs2)cc(-c2nc3cc(Cl)ccc3o2)c1O | inactive |  |
| COc1cc2c(cc1OC)C(c1cc(OC)c(OC)c(OC)c1)C1(O)C(=O)OCC1(O)C2 (configuration not stated) | inactive |  |
| CCOC(=O)CNS(=O)(=O)c1cc(-c2nnc(Nc3cccc(O)c3)c3ccccc23)ccc1C | inactive |  |
| Clc1cccc(-c2nc(NCC3CCCO3)c3ccccc3n2)c1 (configuration not stated) | inconclusive: 1.26 µM [inhibitor, single point] |  |
| Cc1ccc(SCC(=O)Nc2cccc(C(=O)NC(C)(C)C)c2)cc1 | inconclusive: 11.2 µM [inhibitor, single point] |  |
| CCOC(=O)C1C(c2cc(OC)c(O)c(OC)c2)NC(=S)NC1(O)C(F)(F)F (configuration not stated) | inactive |  |
| COc1ccccc1OCC(=O)Nc1ccc2c(c1)OCCO2 | inconclusive: 12.6 µM [activator, partial curve] |  |
| COc1ccc(NS(=O)(=O)c2ccc(Cl)c(NC(=O)c3ccccc3F)c2)cc1 | inconclusive: 35.5 µM [inhibitor, single point] |  |
| Cc1ccc(-c2noc(CCC(=O)N3CCN(c4cccc(C(F)(F)F)c4)CC3)n2)cc1 | inconclusive: 17.8 µM [inhibitor, single point] |  |
| COc1ccc(N(CC(=O)N/N=C/c2ccc(OC)c(OC)c2)S(=O)(=O)c2ccccc2)cc1 | inconclusive: 20 µM [inhibitor, partial curve, poor fit] |  |
| CC12CC3CC(C)(C1)CC(Nc1nc(N4CCOCC4)nc4ccccc14)(C3)C2 | inactive |  |
| CCS(=O)(=O)N1CCC(n2c(C(F)(F)F)nc3cccnc32)CC1 | inactive |  |
| CCOC(=O)Cn1c(=N)n(CCOc2ccc3ccccc3c2)c2ccccc21 | inconclusive: 3.98 µM [activator, partial curve, poor fit] |  |
| COc1cc(NC(=O)CN(C)S(=O)(=O)c2ccc(C)cc2)cc(OC)c1 | inactive |  |
| COc1ccc(NC(=O)Nc2ccc(F)c(F)c2)c(OC)c1 | inactive |  |
| C[C@]12CCC3C(CC[C@H]4C[C@@H](O)CC[C@]34C)C1CCC2=O (some centres not stated) | inactive |  |
| COc1ccc(-c2nnc(SCC(=O)NCc3ccc(C)cc3)nc2-c2ccc(OC)c(OC)c2)cc1OC | inconclusive: 11.2 µM [inhibitor, partial curve, poor fit] |  |
| O=C(O)c1ccc(N/N=C/c2ccc(-c3ccccc3Cl)o2)cc1 | inconclusive: 10 µM [inhibitor, single point] |  |
| N#Cc1ccc(OCC(=O)NCCc2ccccn2)cc1 | inconclusive: 0.891 µM [activator, single point] |  |
| Cc1cc(/C=C2/NC(=O)N(Cc3ccccc3F)C2=O)c(C)n1-c1ccccn1 | inconclusive: 7.94 µM [inhibitor, partial curve] |  |
| CSc1ccccc1NC(=O)c1cc(-c2cccnc2)nc2ccc(Br)cc12 | inconclusive: 7.94 µM [inhibitor, partial curve, poor fit] |  |
| CN(C)CCCN(Cc1ccccc1)C(=S)Nc1ccc(F)c(Cl)c1 | inconclusive: 15.8 µM [inhibitor, single point] |  |

| SMILES | Potency | activity change, negative = inhibition |
| --- | --- | --- |
| Cc1cc(C)c(OCCNC(=O)c2ccccc2Sc2ccccc2C#N)c(C)c1 | inconclusive: 25.9 µM [inhibitor, single point] |  |
| O=C(CNC(=O)C12CC3CC(CC(C3)C1)C2)N1CCN(S(=O)(=O)/C=C/c2ccccc2)CC1 | inconclusive: 14.1 µM [inhibitor, partial curve, poor fit] |  |
| O=C(NCCc1ccccc1)c1c(F)c(F)c(F)c(F)c1F | inactive |  |
| CN(CC(=O)Nc1cccc(F)c1)C(=O)/C=C/c1cn(Cc2ccccc2)nc1-c1cccnc1 | inconclusive: 0.891 µM [inhibitor, full curve, poor fit] |  |
| CC1CC1C(=O)OCC(=O)Nc1cccc([N+](=O)[O-])c1 (configuration not stated) | inconclusive: 1.26 µM [inhibitor, single point] |  |
| CCN(CC)c1cc(C)c2cc(NC(=O)c3ccccc3OC)ccc2n1 | inconclusive: 35.5 µM [inhibitor, single point] and inconclusive: 22.4 µM [inhibitor, single point] |  |
| N#C/C(=C\c1ccc([N+](=O)[O-])cc1)c1ccccn1 | inactive |  |
| Cc1cc(C)c(NC(=O)CSc2ccc(-c3sc(-c4ccccc4)nc3C)nn2)c(C)c1 | inactive |  |
| CSc1ccccc1NC(=O)CSc1nnnn1-c1ccccc1SC | inconclusive: 5.8 µM [activator, full curve, poor fit] |  |
| O=C(CNc1cccc(S(=O)(=O)N2CCCC2)c1)Nc1ccc(C(F)(F)F)cc1 | inconclusive: 12.6 µM [inhibitor, partial curve, poor fit] |  |
| O=C(CSc1ccc(-c2ccc(Cl)cc2)nn1)N1CCCc2ccccc21 | inconclusive: 14.1 µM [inhibitor, single point] |  |
| Cc1cc(C(=O)CNCc2ccco2)c(C)n1-c1ccc(F)cc1 | inactive |  |
| CC1CN(C(=S)NC2CCCC2)CC(C)O1 (configuration not stated) | inconclusive: 5.62 µM [activator, single point] |  |
| Cc1ccc(NC(=O)/C=C/c2ccc(C)o2)c(C)c1 | inactive |  |
| CC(=O)Nc1ccc(/C=N/NC(=O)CNS(=O)(=O)c2ccccc2)cc1 |  | inconclusive: 30.6% [activator] |
| CC(=O)Nc1ccc(C=NNc2nnc(NN=Cc3ccc(NC(C)=O)cc3)c3ccccc23)cc1 | active: 1.58 µM |  |
| CCOc1ccc(CSC2=NCCN2)cc1[N+](=O)[O-] | inconclusive: 13 µM [inhibitor, single point] |  |
| O=C(NCCc1ccccc1)c1cc(S(=O)(=O)N2CCCCC2)c[nH]1 | inactive |  |
| O=C(NCCCn1ccnc1)C(Cc1ccc([N+](=O)[O-])cc1)N1C(=O)c2ccccc2C1=O (configuration not stated) | inconclusive: 1.41 µM [inhibitor, full curve, poor fit] |  |
| Cc1ccc(CN(Cc2ccco2)C(=O)COc2cc(C)c(Cl)c(C)c2)cc1 | inconclusive: 11.2 µM [activator, single point] |  |
| COc1ccc(NC(=O)C[C@H]2C(=O)N(c3ccc(OC)cc3)C[C@@H]2C)cc1 | inconclusive: 0.158 µM [activator, full curve, poor fit] |  |

Complete entries, looked up by structure.
COc1ccc(-c2cc(C(=O)N3CCCCCC3)no2)cc1OC is entered as Potency: inconclusive: 10 µM [activator, partial curve, poor fit]
O=C(CSc1ccc(-c2ccc(Cl)cc2)nn1)N1CCCc2ccccc21 is entered as Potency: inconclusive: 14.1 µM [inhibitor, single point]
Cc1ccc(OCc2nnc(SCC(=O)c3ccccc3)n2-c2ccccc2)cc1 is entered as Potency: inconclusive: 16.4 µM [inhibitor, single point]
